Consider one substance from publication PMC3519677.

Chains of the proteins cited; added tags and fusions are not shown.
UniProt P80297: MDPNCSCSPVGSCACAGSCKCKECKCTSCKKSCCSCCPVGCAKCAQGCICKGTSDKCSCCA

One assay concerns the target T1, GST-tagged TCRP1 (human) (UniProt Q92567).
T1 sequence: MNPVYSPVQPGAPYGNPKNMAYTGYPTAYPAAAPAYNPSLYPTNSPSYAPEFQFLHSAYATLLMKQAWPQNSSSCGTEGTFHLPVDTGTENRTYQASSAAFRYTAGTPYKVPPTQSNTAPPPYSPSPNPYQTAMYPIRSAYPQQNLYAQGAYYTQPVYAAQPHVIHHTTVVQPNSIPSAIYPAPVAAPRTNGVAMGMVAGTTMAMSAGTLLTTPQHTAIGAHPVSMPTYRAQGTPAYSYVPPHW
In words: pull-down; ten micrograms of GST or GST-tagged TCRP1 incubated with Tca8113/PYM cell lysates for 4 h at 4°C; immunoblot with antibodies against GST, Akt or MT1X; only the target purified.

Assay [1] addresses T2, tongue cancer resistance-associated protein 1 (TCRP1), endogenous (human (endogenous in Tca8113/PYM)) (UniProt Q92567).
T2 sequence: T1 sequence
The assay can be described thus: co-IP; Tca8113/PYM cell lysates (modified TNE buffer: 50 mM Tris pH 8.0, 150 mM NaCl, 1% Nonidet P-40) precipitated overnight at 4°C with anti-TCRP1 antibody or control IgG, protein G-agarose; immunoblot.

Results are given in words; binding and its absence hold for the method and conditions named. Binding seen in cells or lysates may run through a third protein. Some entries that bind do so weakly or less than the wild type. For some assays here: Where a sequence is shown, tags or fusion partners need not be part of it.

Take “metallothionein1X (MT1X) (from UniProt P80297 1-61)”: the binding result (in the assay with GST-tagged TCRP1 (human); in assay [1]) was “binds” each time.
